# Reference: PubChem BioAssay AID504784 (Drosophila RNAi Screening Center, 2011)
# Purpose: 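Genome-wide knock-down for genes giving too much or too little stored lipid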 (primary screen)
# Cell system: Drosophila Kc167 embryonic cells
# Reagents: long dsRNA against Drosophila genes, about 250 ng dsRNA per well
# Duration: 4 days
# Challenge: cells fed 400 µM oleic acid bound to BSA
# Measurement: 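Cells imaged and segmented; ratio of lipid droplet area to nuclear area, log-transformed, then normalised as a B-score over the screen; higher means more stored lipid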
# Direction: droplet/nuclear area B-score: higher = more stored lipid (overstorage)
# The screen tested about 17,000 reagents; this is a random part of those that have a named target and a result. 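Each column is one replicate's B-score; the combined score over replicates was not deposited, so single values may mislead.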 The numbers tell different reagents against one gene apart. A plus sign joins genes that one reagent is predicted to hit.
Target gene,reagent no.,"droplet/nuclear area B-score, replicate 1","droplet/nuclear area B-score, replicate 2","droplet/nuclear area B-score, replicate 3"
CG5506,1,0.000143,0.0566,
Spn42Da,1,0.104,0.261,
Acp32CD,1,0.00317,0.206,
Rab11,1,1.59,0.606,
Rpn13R,1,1.17,-0.311,
CG30486,1,-1.44,-1.27,
Col4a1,1,0.0972,-0.075,
CG15042,1,-0.377,-0.988,
CG17349,1,0.357,0.0423,
Rad9,1,-0.262,-0.396,0.415
ATPsynCF6L,1,-1.61,0.0305,
CG7366,1,0.0223,-0.785,
thoc5,1,0.0186,-1.04,
lap,1,-0.0071,0.00648,
Scsalpha2,1,-0.0244,-3.1,
CG33120,1,0.295,0.0668,
CG15370,1,0.525,2.34,0.712
CG15370,2,0.0968,-0.0863,
fu,1,-0.786,-0.174,
CG14339,1,0.128,-0.387,
Mob4,1,-1.43,-0.883,
CG3803,1,1.72,0.862,
Lcp65Ag3,1,-0.256,0.212,0.0338
SmydA-4,1,-2.87,-1.15,0.597
SmydA-4,2,-0.0256,-1.95,
Prip,1,-2.54,0.266,
ClpP,1,-0.695,0.423,
Vps52,1,1.06,-0.513,
Nnf1b,1,-0.992,-1.46,
E(spl)m2-BFM,1,,0.808,
E(spl)m2-BFM,2,-0.391,-0.108,
GluRIIE,1,-1.93,1.41,
CG32733 (retired record) + CG32797,1,2.37,5.68,3.9
Desat2,1,-0.416,-0.489,
CG11837,1,-0.109,1.66,
cos,1,-0.843,-0.968,
Nup93-1,1,-0.285,-0.825,-0.0415
AGBE,1,-0.789,,
CG10748,1,-0.461,-0.884,
CG6191,1,1.02,-2.33,
CG6191,2,0.468,1.1,
CG7183,1,-0.711,-0.854,
CG5521,1,0.699,-0.33,
CG13367,1,-0.972,1.14,
CG13367,2,-1.09,1.49,
CstF64,1,-0.0131,-2.12,
CG11178,1,-1.45,-0.0029,-1.67
CG13113,1,-0.111,-0.213,
CG32202,1,-2.29,-1.73,
AP-1gamma,1,0.438,0.206,-0.311
Or85d,1,-0.205,0.0419,
CG12661,1,-0.0766,1.21,
CG12811,1,0.0502,0.0642,
CG8509,1,2.19,2.99,-0.353
Cad96Ca,1,-0.071,-0.0111,
Cad96Ca,2,0.0004,0.0438,
Hsc70-3,1,3.32,4.58,8.16
kat80,1,-1.26,-0.27,
kat80,2,0.0728,0.183,
CG7747,1,0.242,0.415,
MFS14,1,0.33,-0.555,1.06
CG17929,1,2.34,0.0999,
Fdh,1,0.0532,0.282,
CG8642,1,1.41,-0.454,
Cyt-c1,1,0.78,0.0631,
CG4676,1,-0.0132,-0.541,
CG1172,1,-1.8,0.208,
CG1172,2,-0.359,-0.56,
CG1971,1,-0.694,3.31,
l(2)k05819,1,-0.465,-1.37,
CG13160,1,0.607,1.61,
Afti,1,-0.0668,8.57,
CG12917,1,0.647,-0.144,
trk,1,1.09,-0.11,
His-Psi:CR31754,1,3.89,5.64,
dpr12,1,0.561,0.786,
dpr12,2,-1.27,-0.223,
CG12128 + CG1407,1,0.812,1.79,
iotaTry,1,2.3,-0.0887,
Keap1,1,0.0127,-0.51,
CG30472,1,-1.13,0.29,
Rbp4,1,-0.246,-0.355,
CG9973 (retired record),1,-0.326,0.459,
